Consider two molecules from article doi:10.1101/2023.08.25.554800.

For the assay, the target named is T1, Bit61-TAP (S. cerevisiae) (UniProt P47041).
T1 sequence: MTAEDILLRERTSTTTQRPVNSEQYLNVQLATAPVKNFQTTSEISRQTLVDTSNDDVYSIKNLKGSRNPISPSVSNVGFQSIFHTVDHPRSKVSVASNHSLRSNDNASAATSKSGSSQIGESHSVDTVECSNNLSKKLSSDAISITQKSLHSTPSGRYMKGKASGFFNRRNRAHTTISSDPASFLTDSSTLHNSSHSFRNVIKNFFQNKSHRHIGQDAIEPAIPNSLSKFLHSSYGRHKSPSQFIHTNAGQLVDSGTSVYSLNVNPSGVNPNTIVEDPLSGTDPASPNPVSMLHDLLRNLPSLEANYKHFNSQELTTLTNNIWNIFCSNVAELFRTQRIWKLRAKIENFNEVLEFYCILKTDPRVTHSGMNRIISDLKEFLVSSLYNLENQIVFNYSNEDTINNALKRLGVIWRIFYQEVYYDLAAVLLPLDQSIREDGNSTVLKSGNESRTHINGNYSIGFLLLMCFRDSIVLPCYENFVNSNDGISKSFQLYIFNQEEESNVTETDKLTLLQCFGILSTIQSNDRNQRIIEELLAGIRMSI
Nature of the assay: pull-down.

These are yes or no findings as the source states them, for the method shown. In cells and extracts the contact can be indirect.

B1: Pil1 (native eisosome filaments) (protein, UniProt P53252 1-339)
chain: MHRTYSLRNSRAPTASQLQNPPPPPSTTKGRFFGKGGLAYSFRRSAAGAFGPELSRKLSQLVKIEKNVLRSMELTANERRDAAKQLSIWGLENDDDVSDITDKLGVLIYEVSELDDQFIDRYDQYRLTLKSIRDIEGSVQPSRDRKDKITDKIAYLKYKDPQSPKIEVLEQELVRAEAESLVAEAQLSNITRSKLRAAFNYQFDSIIEHSEKIALIAGYGKALLELLDDSPVTPGETRPAYDGYEASKQIIIDAESALNEWTLDSAQVKPTLSFKQDYEDFEPEEGEEEEEEDGQGRWSEDEQEDGQIEEPEQEEEGAVEEHEQVGHQQSESLPQQTTA
For B1, the binding entry was “no binding”.

B2: Lsp1 (native eisosome filaments) (protein, UniProt Q12230 1-341)
chain: MHRTYSLRNQRAPTAAELQAPPPPPSSTKSKFFGKASIASSFRKNAAGNFGPELARKLSQLVKTEKGVLRAMEVVASERREAAKQLSLWGADNDDDVSDVTDKLGVLIYELGELQDQFIDKYDQYRVTLKSIRNIEASVQPSRDRKEKITDEIAHLKYKDPQSTKIPVLEQELVRAEAESLVAEAQLSNITREKLKAAYSYMFDSLRELSEKFALIAGYGKALLELLDDSPVTPGEARPAYDGYEASRQIIMDAESALESWTLDMAAVKPTLSFHQTVDDVYEDEDGEEEEEPEIQNGDIPGQVVEEEEVEWTTEVPVDDEAHEADHHVSQNGHTSGSENI
Regarding B2, the binding result is “no binding”.
